No constants are given. Whether binding was seen depends on the method and setting. Some binding calls cover weakened binding; strength is not graded here.

Sequences of proteins named here, by UniProt entry; tags and fusion partners are left off. A change or cut given only in a name is not applied to a line headed by its entry.
UniProt P07251: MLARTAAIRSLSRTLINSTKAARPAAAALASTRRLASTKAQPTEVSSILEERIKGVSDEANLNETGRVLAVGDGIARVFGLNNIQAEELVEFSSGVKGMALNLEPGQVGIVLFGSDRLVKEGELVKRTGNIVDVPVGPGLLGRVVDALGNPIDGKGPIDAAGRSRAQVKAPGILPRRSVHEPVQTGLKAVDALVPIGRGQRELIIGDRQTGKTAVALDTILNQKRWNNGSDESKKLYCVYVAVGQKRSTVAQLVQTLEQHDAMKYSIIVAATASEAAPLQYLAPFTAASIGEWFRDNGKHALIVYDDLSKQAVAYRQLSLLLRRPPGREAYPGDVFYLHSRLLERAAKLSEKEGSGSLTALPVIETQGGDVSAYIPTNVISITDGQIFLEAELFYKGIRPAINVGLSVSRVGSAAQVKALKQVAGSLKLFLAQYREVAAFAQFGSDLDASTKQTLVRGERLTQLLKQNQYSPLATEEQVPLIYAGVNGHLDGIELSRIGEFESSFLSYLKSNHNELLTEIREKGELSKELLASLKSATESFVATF

The record followed here is paper PMC9992712.

Assay [1] addresses S. cerevisiae ATP synthase dimer (S. cerevisiae) (UniProt P07251). Briefly: native gel or EMSA; 2D BN-PAGE/SDS-PAGE with Western blot: digitonin extracts of mitochondria from wild type, Δatp19, Δatp20, Δatp21 and Δmco10 strains; monomer and dimer lanes probed with anti-Mco10 and anti-Atp19 antibodies. A general note: A gel shift assay detects complexes by their altered migration in electrophoresis.

Assay [2] deals with S. cerevisiae ATP synthase monomer (S. cerevisiae) (UniProt P07251). The assay is described as above.
Assay [3] has as its target S. cerevisiae ATP synthase dimer (S. cerevisiae) (UniProt P07251). The assay is described as follows: native gel or EMSA; 2D BN-PAGE/SDS-PAGE with mass spectrometry: S. cerevisiae mitochondria extracted with 2% digitonin, monomers and dimers separated on 3-12% BN-PAGE, resolved on 16% SDS-PAGE, 5-20 kDa region of each analysed by LC/MS.
For assay [4], the target named is S. cerevisiae ATP synthase monomer (S. cerevisiae) (UniProt P07251). The assay is described as above.

B1: Mco10 (Mitochondrial class one protein of 10 kDa) (protein, UniProt Q3E824 1-90)
chain: MGAAYKVFGKTVQPHVLAISTFIATAAVASYFTTKPKTKNEGKNSSALSQQKSGESSNSDAMGKDDDVVKSIEGFLNDLEKDTRQDTKAN
Consider B1, for which the binding entry in assay [1] is “binds weakly”; in assay [2] it was “binds”; in assay [3], “binds”; in assay [4] it was “binds”.

B2: ATP synthase subunit e/Atp21 (protein, UniProt P81449 1-96)
chain: MSTVNVLRYSALGLGLFFGFRNDMILKCNAKKKEEQAQYEEKLKLVEEAKKEYAKLHPVVTPKDVPANASFNLEDPNIDFERVILNAVESLKEAST
For B2, the binding result in assay [3] and in assay [4] was “binds” throughout.

B3: MICOS component Mic10 (protein, UniProt Q96VH5 1-97)
chain: MSEQAQTQQPAKSTPSKDSNKNGSSVSTILDTKWDIVLSNMLVKTAMGFGVGVFTSVLFFKRRAFPVWLGIGFGVGRGYAEGDAIFRSSAGLRSSKV
For B3, the binding entry in assay [3] and in assay [4] was “binds” each time.

B4: ATP synthase subunit g/Atp20 (protein, UniProt Q12233 1-115)
chain: MLSRIQNYTSGLVSKANLLSSKALYYGKVGAEISKQIYLKEGLQPPTVAQFKSVYSNLYKQSLNFALKPTEVLSCLKNIQKNELLKYGAYGIQLIGFYSVGEIIGRRKLVGYKHH
As for B4, the binding result in assay [3] and in assay [4] was “binds” throughout.

B5: chaperonin Hsp10 (protein, UniProt P38910 1-106)
chain: MSTLLKSAKSIVPLMDRVLVQRIKAQAKTASGLYLPEKNVEKLNQAEVVAVGPGFTDANGNKVVPQVKVGDQVLIPQFGGSTIKLGNDDEVILFRDAEILAKIAKD
For B5, the binding result in assay [3] and in assay [4] was “binds” in each case.
